Results are given in words; binding and its absence hold for the method and conditions named. Binding can be weak; no strength is given.
Target: human proBDNF precursor protein (human) (UniProt P23560)
Assay: single-phage ELISA, antigen coated 100 ng/well

Sequences of proteins named here, by UniProt entry; tags and fusion partners are left off. A change or cut given only in a name is not applied to a line headed by its entry.
UniProt P23560: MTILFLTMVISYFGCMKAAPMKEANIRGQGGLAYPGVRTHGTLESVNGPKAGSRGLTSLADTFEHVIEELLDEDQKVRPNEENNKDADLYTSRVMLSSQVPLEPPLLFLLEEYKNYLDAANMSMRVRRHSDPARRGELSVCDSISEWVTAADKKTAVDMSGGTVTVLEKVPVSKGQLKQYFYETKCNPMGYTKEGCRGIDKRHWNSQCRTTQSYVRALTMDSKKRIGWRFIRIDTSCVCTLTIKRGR

B1: single-chain antibody 2H8 (scFv)
scFv: EVQLVETGGGLVQPGGSLRLSCAASGFTFSSYGMHWVRQAPGKGLEWVSVISGSGDSTYYAESVKGRFTISRDNARNTVYLQMNSLRAEDTAVYYCASGILTGYVFDYWGKGTMVTVSSGGGGSGGGGSGGGGSDVVMTQSPLSLPVTLGQPASISCRSSQSLVSNDGNTYLNWFQQRPGQPPRRLIYMVSKWDSGVPDRFSGSGSGTDFTLRISRVEAEDVGVYYCMQSTHWPPTFGGGTKLEIKR
binding: binds
